Laboratory results published in article PMC12742733.
These are yes or no findings as the source states them, for the method shown. In cells and extracts the contact can be indirect. Some binding calls cover weakened binding; strength is not graded here. Tags and fused reporters may be left off the sequences shown.

Amino acid sequences for entries named in this document (tags omitted). Residues count along the entry.
UniProt Q16620, residues 32-822: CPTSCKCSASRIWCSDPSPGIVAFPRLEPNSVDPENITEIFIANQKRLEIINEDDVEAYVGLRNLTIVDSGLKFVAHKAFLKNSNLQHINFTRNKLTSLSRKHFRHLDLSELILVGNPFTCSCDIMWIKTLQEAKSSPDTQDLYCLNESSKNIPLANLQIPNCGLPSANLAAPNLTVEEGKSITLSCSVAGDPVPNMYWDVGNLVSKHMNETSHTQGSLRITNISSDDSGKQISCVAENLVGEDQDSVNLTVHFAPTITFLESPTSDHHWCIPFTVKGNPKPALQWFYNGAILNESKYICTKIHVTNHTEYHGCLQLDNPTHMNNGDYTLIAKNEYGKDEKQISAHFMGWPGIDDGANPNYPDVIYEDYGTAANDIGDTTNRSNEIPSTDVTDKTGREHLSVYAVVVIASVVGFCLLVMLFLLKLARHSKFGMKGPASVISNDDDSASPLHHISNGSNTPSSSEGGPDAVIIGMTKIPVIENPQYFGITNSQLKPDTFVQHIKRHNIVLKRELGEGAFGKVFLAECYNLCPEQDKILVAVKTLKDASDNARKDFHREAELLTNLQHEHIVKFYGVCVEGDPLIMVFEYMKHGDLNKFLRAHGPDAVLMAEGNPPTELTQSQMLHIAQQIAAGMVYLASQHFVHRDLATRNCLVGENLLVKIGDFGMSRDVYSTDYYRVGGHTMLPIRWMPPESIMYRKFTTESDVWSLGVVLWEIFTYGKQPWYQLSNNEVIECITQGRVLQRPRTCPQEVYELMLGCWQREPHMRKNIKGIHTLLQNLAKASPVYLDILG

Target: TrkB (pCMV-SPORT6-TrkB), untagged (UniProt Q16620)
Assay: co-IP; HEK293T cells transfected with pCMV-SPORT6-TrkB and pDisplay-SLITRK2 plasmids; lysis in 20 mM Tris pH 7.4, 1.0% Triton X-100, 0.1% SDS, 150 mM NaCl, 10% glycerol; antibody overnight at 4 °C, protein A-Sepharose; immunoblot

binding	Binder
binds	HA-tagged SLITRK2 WT (pDisplay-SLITRK2 WT) (receptor, UniProt Q9H156 22-845) RKTAKDICKIRCLCEEKENVLNINCENKGFTTVSLLQPPQYRIYQLFLNGNLLTRLYPNEFVNYSNAVTLHLGNNGLQEIRTGAFSGLKTLKRLHLNNNKLEILREDTFLGLESLEYLQADYNYISAIEAGAFSKLNKLKVLILNDNLLLSLPSNVFRFVLLTHLDLRGNRLKVMPFAGVLEHIGGIMEIQLEENPWNCTCDLLPLKAWLDTITVFVGEIVCETPFRLHGKDVTQLTRQDLCPRKSASDSSQRGSHADTHVQRLSPTMNPALNPTRAPKASRPPKMRNRPTPRVTVSKDRQSFGPIMVYQTKSPVPLTCPSSCVCTSQSSDNGLNVNCQERKFTNISDLQPKPTSPKKLYLTGNYLQTVYKNDLLEYSSLDLLHLGNNRIAVIQEGAFTNLTSLRRLYLNGNYLEVLYPSMFDGLQSLQYLYLEYNVIKEIKPLTFDALINLQLLFLNNNLLRSLPDNIFGGTALTRLNLRNNHFSHLPVKGVLDQLPAFIQIDLQENPWDCTCDIMGLKDWTEHANSPVIINEVTCESPAKHAGEILKFLGREAICPDSPNLSDGTVLSMNHNTDTPRSLSVSPSSYPELHTEVPLSVLILGLLVVFILSVCFGAGLFVFVLKRRKGVPSVPRNTNNLDVSSFQLQYGSYNTETHDKTDGHVYNYIPPPVGQMCQNPIYMQKEGDPVAYYRNLQEFSYSNLEEKKEEPATPAYTISATELLEKQATPREPELLYQNIAERVKELPSAGLVHYNFCTLPKRQFAPSYESRRQNQDRINKTVLYGTPRKCFVGQSKPNHPLLQAKPQSEPDYLEVLEKQTAISQL
binds	HA-tagged SLITRK2 V89M (pDisplay-SLITRK2 V89M) (receptor, UniProt Q9H156 22-845) RKTAKDICKIRCLCEEKENVLNINCENKGFTTVSLLQPPQYRIYQLFLNGNLLTRLYPNEFVNYSNAMTLHLGNNGLQEIRTGAFSGLKTLKRLHLNNNKLEILREDTFLGLESLEYLQADYNYISAIEAGAFSKLNKLKVLILNDNLLLSLPSNVFRFVLLTHLDLRGNRLKVMPFAGVLEHIGGIMEIQLEENPWNCTCDLLPLKAWLDTITVFVGEIVCETPFRLHGKDVTQLTRQDLCPRKSASDSSQRGSHADTHVQRLSPTMNPALNPTRAPKASRPPKMRNRPTPRVTVSKDRQSFGPIMVYQTKSPVPLTCPSSCVCTSQSSDNGLNVNCQERKFTNISDLQPKPTSPKKLYLTGNYLQTVYKNDLLEYSSLDLLHLGNNRIAVIQEGAFTNLTSLRRLYLNGNYLEVLYPSMFDGLQSLQYLYLEYNVIKEIKPLTFDALINLQLLFLNNNLLRSLPDNIFGGTALTRLNLRNNHFSHLPVKGVLDQLPAFIQIDLQENPWDCTCDIMGLKDWTEHANSPVIINEVTCESPAKHAGEILKFLGREAICPDSPNLSDGTVLSMNHNTDTPRSLSVSPSSYPELHTEVPLSVLILGLLVVFILSVCFGAGLFVFVLKRRKGVPSVPRNTNNLDVSSFQLQYGSYNTETHDKTDGHVYNYIPPPVGQMCQNPIYMQKEGDPVAYYRNLQEFSYSNLEEKKEEPATPAYTISATELLEKQATPREPELLYQNIAERVKELPSAGLVHYNFCTLPKRQFAPSYESRRQNQDRINKTVLYGTPRKCFVGQSKPNHPLLQAKPQSEPDYLEVLEKQTAISQL
